PubChem BioAssay AID1508597 – Cure First – 2020
In all, the deposit lists about 2,100 reagents; this is a part drawn at random. 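Calls flag viability under 80% in either arm, not effects specific to rucaparib; the reference for percent is not stated.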 A number with no mark means an inactive call. A reagent listed more than once was tested more than once; the source does not tell the runs apart. Reagent sequences are not shown. Not stated in the record: the 100% reference.

Test: 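Survival screen with siRNA in ovarian cancer cells derived from patients, with or without rucaparib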 (primary screen)
Cells: human ovarian carcinoma lines grown from tumours: OCI-P5x (papillary serous) and OCI-C5x (clear cell)
Knock-down reagent: siRNA pool against human genes, 1.25 pmol siRNA per well
Duration: 72 h or 96 h, depending on the cell culture
Treatment: rucaparib 20 µM (about IC30) or vehicle, present until read-out
Measurement: 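Luminescent ATP-based viability assay read 72 or 96 h after transfection, depending on culture, given as normalised percent viability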
Reading the numbers: viability, normalised: higher = more viable cells remaining
Rule for the call: 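Active when normalised viability falls below 80 percent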
Meaning of the calls: active = viability under 80%; inactive = viability 80% or more

target gene	rucaparib or vehicle	cell line	technical replicate	viability, normalised (%)
XAB2 (GeneID 56949)	Rucaparib	OCI-C5x (clear cell)	1	33.8 (active)
XAB2 (GeneID 56949)	Rucaparib	OCI-C5x (clear cell)	2	43.7 (active)
XAB2 (GeneID 56949)	Rucaparib	OCI-C5x (clear cell)	3	40 (active)
XAB2 (GeneID 56949)	Rucaparib	OCI-P5x (serous)	1	53.1 (active)
XAB2 (GeneID 56949)	Rucaparib	OCI-P5x (serous)	2	51.5 (active)
XAB2 (GeneID 56949)	Rucaparib	OCI-P5x (serous)	3	48.9 (active)
XAB2 (GeneID 56949)	Vehicle	OCI-C5x (clear cell)	1	82.1
XAB2 (GeneID 56949)	Vehicle	OCI-C5x (clear cell)	2	24.9 (active)
XAB2 (GeneID 56949)	Vehicle	OCI-C5x (clear cell)	3	19.6 (active)
XAB2 (GeneID 56949)	Vehicle	OCI-P5x (serous)	1	42.9 (active)
XAB2 (GeneID 56949)	Vehicle	OCI-P5x (serous)	2	41.6 (active)
XAB2 (GeneID 56949)	Vehicle	OCI-P5x (serous)	3	35.7 (active)
BAZ2A (GeneID 11176)	Rucaparib	OCI-C5x (clear cell)	1	28.2 (active)
BAZ2A (GeneID 11176)	Rucaparib	OCI-C5x (clear cell)	2	18.8 (active)
BAZ2A (GeneID 11176)	Rucaparib	OCI-C5x (clear cell)	3	13.3 (active)
BAZ2A (GeneID 11176)	Rucaparib	OCI-P5x (serous)	1	52.1 (active)
BAZ2A (GeneID 11176)	Rucaparib	OCI-P5x (serous)	2	51.6 (active)
BAZ2A (GeneID 11176)	Rucaparib	OCI-P5x (serous)	3	53.4 (active)
BAZ2A (GeneID 11176)	Vehicle	OCI-C5x (clear cell)	1	11.3 (active)
BAZ2A (GeneID 11176)	Vehicle	OCI-C5x (clear cell)	2	16.7 (active)
BAZ2A (GeneID 11176)	Vehicle	OCI-C5x (clear cell)	3	13.8 (active)
BAZ2A (GeneID 11176)	Vehicle	OCI-P5x (serous)	1	44.7 (active)
BAZ2A (GeneID 11176)	Vehicle	OCI-P5x (serous)	2	50.8 (active)
BAZ2A (GeneID 11176)	Vehicle	OCI-P5x (serous)	3	47.1 (active)
FXR1 (GeneID 8087)	Rucaparib	OCI-C5x (clear cell)	1	42.9 (active)
FXR1 (GeneID 8087)	Rucaparib	OCI-C5x (clear cell)	2	40.3 (active)
FXR1 (GeneID 8087)	Rucaparib	OCI-C5x (clear cell)	3	48.1 (active)
FXR1 (GeneID 8087)	Rucaparib	OCI-P5x (serous)	1	63 (active)
FXR1 (GeneID 8087)	Rucaparib	OCI-P5x (serous)	2	84
FXR1 (GeneID 8087)	Rucaparib	OCI-P5x (serous)	3	78 (active)
FXR1 (GeneID 8087)	Vehicle	OCI-C5x (clear cell)	1	46.4 (active)
FXR1 (GeneID 8087)	Vehicle	OCI-C5x (clear cell)	2	58.1 (active)
FXR1 (GeneID 8087)	Vehicle	OCI-C5x (clear cell)	3	53.8 (active)
FXR1 (GeneID 8087)	Vehicle	OCI-P5x (serous)	1	61.4 (active)
FXR1 (GeneID 8087)	Vehicle	OCI-P5x (serous)	2	79.4 (active)
FXR1 (GeneID 8087)	Vehicle	OCI-P5x (serous)	3	77.4 (active)
FGFR2 (GeneID 2263)	Rucaparib	OCI-C5x (clear cell)	1	35.6 (active)
FGFR2 (GeneID 2263)	Rucaparib	OCI-C5x (clear cell)	1	48.5 (active)
FGFR2 (GeneID 2263)	Rucaparib	OCI-C5x (clear cell)	2	35.3 (active)
FGFR2 (GeneID 2263)	Rucaparib	OCI-C5x (clear cell)	2	27.9 (active)
FGFR2 (GeneID 2263)	Rucaparib	OCI-C5x (clear cell)	3	49.5 (active)
FGFR2 (GeneID 2263)	Rucaparib	OCI-C5x (clear cell)	3	35.6 (active)
FGFR2 (GeneID 2263)	Rucaparib	OCI-P5x (serous)	1	66.1 (active)
FGFR2 (GeneID 2263)	Rucaparib	OCI-P5x (serous)	1	72.4 (active)
FGFR2 (GeneID 2263)	Rucaparib	OCI-P5x (serous)	2	66.2 (active)
FGFR2 (GeneID 2263)	Rucaparib	OCI-P5x (serous)	2	68.9 (active)
FGFR2 (GeneID 2263)	Rucaparib	OCI-P5x (serous)	3	77.6 (active)
FGFR2 (GeneID 2263)	Rucaparib	OCI-P5x (serous)	3	63.4 (active)
FGFR2 (GeneID 2263)	Vehicle	OCI-C5x (clear cell)	1	59.9 (active)
FGFR2 (GeneID 2263)	Vehicle	OCI-C5x (clear cell)	1	33.8 (active)
FGFR2 (GeneID 2263)	Vehicle	OCI-C5x (clear cell)	2	48.2 (active)
FGFR2 (GeneID 2263)	Vehicle	OCI-C5x (clear cell)	2	61.1 (active)
FGFR2 (GeneID 2263)	Vehicle	OCI-C5x (clear cell)	3	43.3 (active)
FGFR2 (GeneID 2263)	Vehicle	OCI-C5x (clear cell)	3	44.3 (active)
FGFR2 (GeneID 2263)	Vehicle	OCI-P5x (serous)	1	46.3 (active)
FGFR2 (GeneID 2263)	Vehicle	OCI-P5x (serous)	1	83.1
FGFR2 (GeneID 2263)	Vehicle	OCI-P5x (serous)	2	48.4 (active)
FGFR2 (GeneID 2263)	Vehicle	OCI-P5x (serous)	2	78.6 (active)
FGFR2 (GeneID 2263)	Vehicle	OCI-P5x (serous)	3	119
FGFR2 (GeneID 2263)	Vehicle	OCI-P5x (serous)	3	54.6 (active)

An excerpt from the list above:
target gene	rucaparib or vehicle	cell line	technical replicate	viability, normalised (%)
BAZ2A (GeneID 11176)	Vehicle	OCI-P5x (serous)	2	50.8 (active)
BAZ2A (GeneID 11176)	Vehicle	OCI-P5x (serous)	3	47.1 (active)
FXR1 (GeneID 8087)	Rucaparib	OCI-C5x (clear cell)	1	42.9 (active)
FXR1 (GeneID 8087)	Rucaparib	OCI-C5x (clear cell)	2	40.3 (active)
FXR1 (GeneID 8087)	Rucaparib	OCI-C5x (clear cell)	3	48.1 (active)
